Measured values reported in US5599559A, “Calcium channel blocking polypeptide from agelenopsis aperta and therapeutic methods employing it” (priority 1995, dated 1997).

Test system: calcium channels
Format: cell-based, rats
Conditions: read-out: IC50 for blocking calcium channels; pH 7.4

Question: For `COC(=O)C1=C(C)NC(C)=C(C(=O)OC)C1c1ccccc1[N+](=O)[O-]` [Nifedipine], which IC50 is on record?
Answer: 0.033 µM
